Results as given in doi:10.1101/2023.11.02.565247.
Read-outs that look alike come from different tables or passages of the source. No constants are given. Whether binding was seen depends on the method and setting. In cells and extracts the contact can be indirect. Some entries that bind do so weakly or less than the wild type. Where a sequence is shown, tags or fusion partners need not be part of it.

The chains behind the UniProt entries cited, without tags or fusion partners.
UniProt P19091: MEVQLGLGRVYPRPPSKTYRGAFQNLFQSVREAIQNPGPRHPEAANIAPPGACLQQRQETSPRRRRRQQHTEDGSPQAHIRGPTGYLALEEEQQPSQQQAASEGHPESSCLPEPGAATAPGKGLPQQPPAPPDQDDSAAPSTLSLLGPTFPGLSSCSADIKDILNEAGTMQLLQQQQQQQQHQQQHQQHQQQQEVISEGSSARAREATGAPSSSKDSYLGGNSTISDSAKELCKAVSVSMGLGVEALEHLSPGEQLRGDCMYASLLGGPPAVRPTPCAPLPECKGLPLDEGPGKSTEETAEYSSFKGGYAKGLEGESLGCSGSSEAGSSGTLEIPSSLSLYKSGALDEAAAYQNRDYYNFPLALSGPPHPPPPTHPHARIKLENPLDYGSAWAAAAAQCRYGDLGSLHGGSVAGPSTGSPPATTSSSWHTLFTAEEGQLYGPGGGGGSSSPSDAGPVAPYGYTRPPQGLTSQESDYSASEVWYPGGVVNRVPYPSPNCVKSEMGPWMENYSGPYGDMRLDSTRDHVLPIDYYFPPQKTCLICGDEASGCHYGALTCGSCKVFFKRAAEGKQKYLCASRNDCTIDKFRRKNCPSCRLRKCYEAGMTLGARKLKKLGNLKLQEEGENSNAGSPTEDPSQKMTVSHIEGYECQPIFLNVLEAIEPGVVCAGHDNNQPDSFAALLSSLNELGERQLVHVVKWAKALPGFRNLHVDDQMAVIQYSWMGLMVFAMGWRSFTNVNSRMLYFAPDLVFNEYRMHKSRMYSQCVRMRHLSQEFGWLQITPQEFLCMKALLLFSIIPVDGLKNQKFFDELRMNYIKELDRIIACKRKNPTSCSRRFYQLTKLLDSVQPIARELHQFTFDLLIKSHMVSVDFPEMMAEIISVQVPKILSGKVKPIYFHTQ

How the values were obtained:
Test in all cases: co-IP
[1] = target: T1, Myc-PGC1α (peroxisome proliferator-activated receptor gamma coactivator 1-alpha), expressed from adenovirus (mouse) (UniProt O70343)
T1 sequence: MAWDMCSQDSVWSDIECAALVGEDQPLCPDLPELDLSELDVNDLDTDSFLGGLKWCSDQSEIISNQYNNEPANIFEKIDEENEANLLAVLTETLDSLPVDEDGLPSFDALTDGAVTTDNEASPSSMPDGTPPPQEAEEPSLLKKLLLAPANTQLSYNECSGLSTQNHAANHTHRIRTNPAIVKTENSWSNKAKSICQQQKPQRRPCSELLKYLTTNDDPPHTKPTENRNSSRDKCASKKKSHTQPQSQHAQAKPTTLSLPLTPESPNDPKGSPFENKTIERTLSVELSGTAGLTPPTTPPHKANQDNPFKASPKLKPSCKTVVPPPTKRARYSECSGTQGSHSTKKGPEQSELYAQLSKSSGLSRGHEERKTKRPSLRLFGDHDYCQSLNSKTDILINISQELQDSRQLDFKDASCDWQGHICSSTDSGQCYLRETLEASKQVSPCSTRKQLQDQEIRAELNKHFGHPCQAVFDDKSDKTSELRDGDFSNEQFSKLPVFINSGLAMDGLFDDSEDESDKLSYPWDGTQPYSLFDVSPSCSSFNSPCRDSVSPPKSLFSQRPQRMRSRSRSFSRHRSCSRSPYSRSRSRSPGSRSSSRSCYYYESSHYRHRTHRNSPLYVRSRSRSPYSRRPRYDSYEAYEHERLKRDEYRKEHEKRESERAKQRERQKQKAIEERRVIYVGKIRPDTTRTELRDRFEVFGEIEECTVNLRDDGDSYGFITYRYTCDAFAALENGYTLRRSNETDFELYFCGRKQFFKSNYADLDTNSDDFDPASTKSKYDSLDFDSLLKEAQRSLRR

HA-tagged mERRα (mouse) [2] = target: T2, HA-tagged mERRα (mouse) (UniProt O08580)
T2 sequence: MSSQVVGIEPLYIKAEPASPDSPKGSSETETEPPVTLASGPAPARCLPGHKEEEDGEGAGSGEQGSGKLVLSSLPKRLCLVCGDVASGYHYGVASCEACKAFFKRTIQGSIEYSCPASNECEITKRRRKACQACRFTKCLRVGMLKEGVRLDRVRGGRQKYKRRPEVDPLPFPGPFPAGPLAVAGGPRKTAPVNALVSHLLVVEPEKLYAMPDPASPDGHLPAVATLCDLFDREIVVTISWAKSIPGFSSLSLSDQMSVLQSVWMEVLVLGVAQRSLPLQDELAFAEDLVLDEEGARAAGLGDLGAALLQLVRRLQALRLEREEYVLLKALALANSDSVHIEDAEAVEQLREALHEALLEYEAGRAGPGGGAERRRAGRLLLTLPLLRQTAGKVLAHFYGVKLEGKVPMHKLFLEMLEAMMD

[3] = target: T1, Myc-PGC1α (peroxisome proliferator-activated receptor gamma coactivator 1-alpha), expressed from adenovirus (mouse); remark: listed apart in the source
HA-tagged mERRα (mouse) [4] = target: T2, HA-tagged mERRα (mouse); remark: listed apart in the source

Molecule: Androgen receptor (AR), endogenous in hepatocytes (from UniProt P19091 1-899)
- binding [1]: binds

Molecule: Flag-mAR (from UniProt P19091 1-899)
- binding (HA-tagged mERRα (mouse) [2]): binds

B1: Estrogen-related receptor alpha (ERRα), endogenous in hepatocytes (protein, UniProt O08580 1-422)
chain: MSSQVVGIEPLYIKAEPASPDSPKGSSETETEPPVTLASGPAPARCLPGHKEEEDGEGAGSGEQGSGKLVLSSLPKRLCLVCGDVASGYHYGVASCEACKAFFKRTIQGSIEYSCPASNECEITKRRRKACQACRFTKCLRVGMLKEGVRLDRVRGGRQKYKRRPEVDPLPFPGPFPAGPLAVAGGPRKTAPVNALVSHLLVVEPEKLYAMPDPASPDGHLPAVATLCDLFDREIVVTISWAKSIPGFSSLSLSDQMSVLQSVWMEVLVLGVAQRSLPLQDELAFAEDLVLDEEGARAAGLGDLGAALLQLVRRLQALRLEREEYVLLKALALANSDSVHIEDAEAVEQLREALHEALLEYEAGRAGPGGGAERRRAGRLLLTLPLLRQTAGKVLAHFYGVKLEGKVPMHKLFLEMLEAMMD
- binding [3]: binds

B2: Myc-tagged mPGC1α (protein, UniProt O70343 1-797)
chain: MAWDMCSQDSVWSDIECAALVGEDQPLCPDLPELDLSELDVNDLDTDSFLGGLKWCSDQSEIISNQYNNEPANIFEKIDEENEANLLAVLTETLDSLPVDEDGLPSFDALTDGAVTTDNEASPSSMPDGTPPPQEAEEPSLLKKLLLAPANTQLSYNECSGLSTQNHAANHTHRIRTNPAIVKTENSWSNKAKSICQQQKPQRRPCSELLKYLTTNDDPPHTKPTENRNSSRDKCASKKKSHTQPQSQHAQAKPTTLSLPLTPESPNDPKGSPFENKTIERTLSVELSGTAGLTPPTTPPHKANQDNPFKASPKLKPSCKTVVPPPTKRARYSECSGTQGSHSTKKGPEQSELYAQLSKSSGLSRGHEERKTKRPSLRLFGDHDYCQSLNSKTDILINISQELQDSRQLDFKDASCDWQGHICSSTDSGQCYLRETLEASKQVSPCSTRKQLQDQEIRAELNKHFGHPCQAVFDDKSDKTSELRDGDFSNEQFSKLPVFINSGLAMDGLFDDSEDESDKLSYPWDGTQPYSLFDVSPSCSSFNSPCRDSVSPPKSLFSQRPQRMRSRSRSFSRHRSCSRSPYSRSRSRSPGSRSSSRSCYYYESSHYRHRTHRNSPLYVRSRSRSPYSRRPRYDSYEAYEHERLKRDEYRKEHEKRESERAKQRERQKQKAIEERRVIYVGKIRPDTTRTELRDRFEVFGEIEECTVNLRDDGDSYGFITYRYTCDAFAALENGYTLRRSNETDFELYFCGRKQFFKSNYADLDTNSDDFDPASTKSKYDSLDFDSLLKEAQRSLRR
- binding (HA-tagged mERRα (mouse) [4]): binds
